Reference: paper PMC5072591

Molecular target: Fertilization Independent Endosperm 2 (OsFIE2) (rice (Oryza sativa))
Test: two-hybrid; yeast two-hybrid (Clontech); bait in pGBKT9, prey in pGADT7, reciprocal constructs also made; control media -LT, selective media -LTHA plus X-alpha-gal

binding: no binding
B1: OsCLF (protein, UniProt Q5VN06 1-896)
chain: MAGDSRNEPMFCEEGSSESGYVLCVIDSLKKKITSDRFVYIQKRVEENSIKLSPITLHSHNLSKNRQTSTSNSTDLVSNLLTKRKEDALCAVNSRESSPDESEGANCQDECSSTVIVGGNLSARNSVRPIRLPEVATLPPYTTWIFLDRNQRMQEDQSVLGRRRIYYDTNCGEALICSDSEDEAVEDEEEKKEFKDSEDCIIRMTIQECGMSDAVLETLARDIERAPDDIKARYEILQGEKPEGSSKKVSELNVKMEDVYGDKDLDAALDSFDNLFCRRCLVFDCKLHGCSQDLVFPTEKQAPLCSSDEGTPCGIHCYKLVSKPDAIMEIDSHLLVDVEEPTSDNLKDQIGSNKKKLGSSGQKTKSQQSESSSTARVSSESSESEVQLLSNKSPQHSPGLSKNKLGAKGGIKKSTNRRIAERILMSVKKGQQEMSPDSNSIVNGCHWPRDMKLRSDTRSGIKDSVVSSQCNSPSTRSFRKKGTLQMENNSSFVDAQSDSMEDTNNEHSATDGCDSSRKEECVDESICRQEAHGRSWKVIEQGLLLKGLEIFGKNSCLIARNLLGGMKTCTDVFQYMNYIENSSASGALSGVDSLVKGYMKGNELRTRSRFVRRRGRVRRLKYTWKTAGYHFIRKRITERKDQPCRQYTPCGCQSACGKQCPCLTNGTCCEKYCGCPKMCKNRFRGCHCAKSQCRSRQCPCFAADRECDPDVCRNCWVGCGDGTLGVPNQRGDNYECRNMKLLLKQQQRVLLGRSDVSGWGAFLKNSVGKHEYLGEYTGELISHKEADKRGKIYDRENSSFLFNLNNEYVLDAYRMGDKLKFANHSPDPNCYAKVIMVAGDHRVGIFAKERISAGEELFYDYRYEPDRAPAWARKPEGPGAKDDAQPSTGRAKKLAH

These are yes or no findings as the source states them, for the method shown.
